Laboratory results as given in patent US20140030274A1.
No constants are given. Whether binding was seen depends on the method and setting. Some binding calls cover weakened binding; strength is not graded here.

What was measured:
Aβ(M1-42) (human) = experiment: gel filtration on Superdex75 and SDS PAGE of fractions, 0 and 2 h incubation
Aβ(M1-40) (human) = experiment: gel filtration on Superdex75 and SDS PAGE of fractions, 8 µM Aβ40 and 0.8 µM Bri2 BRICHOS after 20 h at 37 °C

“Bri2 BRICHOS (recombinant human Bri2 BRICHOS construct as described in Peng et al. 2010) (from UniProt Q9Y287 90-236)” was tested, and the binding (Aβ(M1-42) (human)) was “binds” and the binding (Aβ(M1-40) (human)) was “binds”.
